The supplement of paper PMC10849652
The list shows a part of the results.

Protein sequences, listed by entry. Tags and fused reporters are not part of them. Lines headed by an entry give the natural chain unless they say otherwise; changes in a name come on top.
UniProt P33240: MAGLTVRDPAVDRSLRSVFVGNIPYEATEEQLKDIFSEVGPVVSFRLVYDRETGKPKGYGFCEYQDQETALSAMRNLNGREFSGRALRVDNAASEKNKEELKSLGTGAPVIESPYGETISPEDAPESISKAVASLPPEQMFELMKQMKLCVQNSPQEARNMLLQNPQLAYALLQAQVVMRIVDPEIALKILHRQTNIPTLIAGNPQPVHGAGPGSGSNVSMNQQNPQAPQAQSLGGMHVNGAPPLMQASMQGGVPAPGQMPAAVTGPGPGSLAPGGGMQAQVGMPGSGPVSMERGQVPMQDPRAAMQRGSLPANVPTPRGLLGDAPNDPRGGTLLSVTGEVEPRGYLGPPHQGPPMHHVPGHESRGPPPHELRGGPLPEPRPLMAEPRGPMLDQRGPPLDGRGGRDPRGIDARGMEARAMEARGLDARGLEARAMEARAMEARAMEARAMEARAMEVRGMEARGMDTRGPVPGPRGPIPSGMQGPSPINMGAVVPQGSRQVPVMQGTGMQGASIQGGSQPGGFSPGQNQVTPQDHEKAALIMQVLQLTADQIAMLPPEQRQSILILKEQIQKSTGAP
UniProt P99999: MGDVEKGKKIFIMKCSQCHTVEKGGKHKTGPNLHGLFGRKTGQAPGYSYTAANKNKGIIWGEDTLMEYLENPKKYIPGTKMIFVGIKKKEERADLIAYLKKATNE
UniProt Q7L1T6: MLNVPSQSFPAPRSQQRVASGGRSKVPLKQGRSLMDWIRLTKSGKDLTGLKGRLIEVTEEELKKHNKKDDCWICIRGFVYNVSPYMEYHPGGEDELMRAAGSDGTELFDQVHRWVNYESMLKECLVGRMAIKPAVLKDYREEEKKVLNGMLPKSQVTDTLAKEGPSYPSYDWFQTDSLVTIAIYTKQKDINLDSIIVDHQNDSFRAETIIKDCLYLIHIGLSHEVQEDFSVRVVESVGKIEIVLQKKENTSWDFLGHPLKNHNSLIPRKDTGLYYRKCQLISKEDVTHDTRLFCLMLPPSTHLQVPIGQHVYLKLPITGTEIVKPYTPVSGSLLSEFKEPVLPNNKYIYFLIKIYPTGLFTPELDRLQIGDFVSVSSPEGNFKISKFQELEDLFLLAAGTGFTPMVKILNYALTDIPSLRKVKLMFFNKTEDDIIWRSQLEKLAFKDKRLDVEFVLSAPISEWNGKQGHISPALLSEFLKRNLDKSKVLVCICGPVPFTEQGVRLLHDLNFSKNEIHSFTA
UniProt P01034: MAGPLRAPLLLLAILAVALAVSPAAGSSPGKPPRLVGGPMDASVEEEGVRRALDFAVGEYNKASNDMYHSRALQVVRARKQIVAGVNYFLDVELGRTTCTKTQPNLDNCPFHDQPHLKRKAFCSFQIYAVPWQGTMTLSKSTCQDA
UniProt Q8NBI2: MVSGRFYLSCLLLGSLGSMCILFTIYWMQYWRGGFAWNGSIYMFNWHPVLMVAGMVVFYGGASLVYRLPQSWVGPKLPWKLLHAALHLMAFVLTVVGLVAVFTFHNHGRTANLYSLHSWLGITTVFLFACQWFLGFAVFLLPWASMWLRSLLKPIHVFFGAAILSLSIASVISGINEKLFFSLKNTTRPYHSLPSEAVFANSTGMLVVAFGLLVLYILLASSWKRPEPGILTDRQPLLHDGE
UniProt Q92793, whole entry, looked up: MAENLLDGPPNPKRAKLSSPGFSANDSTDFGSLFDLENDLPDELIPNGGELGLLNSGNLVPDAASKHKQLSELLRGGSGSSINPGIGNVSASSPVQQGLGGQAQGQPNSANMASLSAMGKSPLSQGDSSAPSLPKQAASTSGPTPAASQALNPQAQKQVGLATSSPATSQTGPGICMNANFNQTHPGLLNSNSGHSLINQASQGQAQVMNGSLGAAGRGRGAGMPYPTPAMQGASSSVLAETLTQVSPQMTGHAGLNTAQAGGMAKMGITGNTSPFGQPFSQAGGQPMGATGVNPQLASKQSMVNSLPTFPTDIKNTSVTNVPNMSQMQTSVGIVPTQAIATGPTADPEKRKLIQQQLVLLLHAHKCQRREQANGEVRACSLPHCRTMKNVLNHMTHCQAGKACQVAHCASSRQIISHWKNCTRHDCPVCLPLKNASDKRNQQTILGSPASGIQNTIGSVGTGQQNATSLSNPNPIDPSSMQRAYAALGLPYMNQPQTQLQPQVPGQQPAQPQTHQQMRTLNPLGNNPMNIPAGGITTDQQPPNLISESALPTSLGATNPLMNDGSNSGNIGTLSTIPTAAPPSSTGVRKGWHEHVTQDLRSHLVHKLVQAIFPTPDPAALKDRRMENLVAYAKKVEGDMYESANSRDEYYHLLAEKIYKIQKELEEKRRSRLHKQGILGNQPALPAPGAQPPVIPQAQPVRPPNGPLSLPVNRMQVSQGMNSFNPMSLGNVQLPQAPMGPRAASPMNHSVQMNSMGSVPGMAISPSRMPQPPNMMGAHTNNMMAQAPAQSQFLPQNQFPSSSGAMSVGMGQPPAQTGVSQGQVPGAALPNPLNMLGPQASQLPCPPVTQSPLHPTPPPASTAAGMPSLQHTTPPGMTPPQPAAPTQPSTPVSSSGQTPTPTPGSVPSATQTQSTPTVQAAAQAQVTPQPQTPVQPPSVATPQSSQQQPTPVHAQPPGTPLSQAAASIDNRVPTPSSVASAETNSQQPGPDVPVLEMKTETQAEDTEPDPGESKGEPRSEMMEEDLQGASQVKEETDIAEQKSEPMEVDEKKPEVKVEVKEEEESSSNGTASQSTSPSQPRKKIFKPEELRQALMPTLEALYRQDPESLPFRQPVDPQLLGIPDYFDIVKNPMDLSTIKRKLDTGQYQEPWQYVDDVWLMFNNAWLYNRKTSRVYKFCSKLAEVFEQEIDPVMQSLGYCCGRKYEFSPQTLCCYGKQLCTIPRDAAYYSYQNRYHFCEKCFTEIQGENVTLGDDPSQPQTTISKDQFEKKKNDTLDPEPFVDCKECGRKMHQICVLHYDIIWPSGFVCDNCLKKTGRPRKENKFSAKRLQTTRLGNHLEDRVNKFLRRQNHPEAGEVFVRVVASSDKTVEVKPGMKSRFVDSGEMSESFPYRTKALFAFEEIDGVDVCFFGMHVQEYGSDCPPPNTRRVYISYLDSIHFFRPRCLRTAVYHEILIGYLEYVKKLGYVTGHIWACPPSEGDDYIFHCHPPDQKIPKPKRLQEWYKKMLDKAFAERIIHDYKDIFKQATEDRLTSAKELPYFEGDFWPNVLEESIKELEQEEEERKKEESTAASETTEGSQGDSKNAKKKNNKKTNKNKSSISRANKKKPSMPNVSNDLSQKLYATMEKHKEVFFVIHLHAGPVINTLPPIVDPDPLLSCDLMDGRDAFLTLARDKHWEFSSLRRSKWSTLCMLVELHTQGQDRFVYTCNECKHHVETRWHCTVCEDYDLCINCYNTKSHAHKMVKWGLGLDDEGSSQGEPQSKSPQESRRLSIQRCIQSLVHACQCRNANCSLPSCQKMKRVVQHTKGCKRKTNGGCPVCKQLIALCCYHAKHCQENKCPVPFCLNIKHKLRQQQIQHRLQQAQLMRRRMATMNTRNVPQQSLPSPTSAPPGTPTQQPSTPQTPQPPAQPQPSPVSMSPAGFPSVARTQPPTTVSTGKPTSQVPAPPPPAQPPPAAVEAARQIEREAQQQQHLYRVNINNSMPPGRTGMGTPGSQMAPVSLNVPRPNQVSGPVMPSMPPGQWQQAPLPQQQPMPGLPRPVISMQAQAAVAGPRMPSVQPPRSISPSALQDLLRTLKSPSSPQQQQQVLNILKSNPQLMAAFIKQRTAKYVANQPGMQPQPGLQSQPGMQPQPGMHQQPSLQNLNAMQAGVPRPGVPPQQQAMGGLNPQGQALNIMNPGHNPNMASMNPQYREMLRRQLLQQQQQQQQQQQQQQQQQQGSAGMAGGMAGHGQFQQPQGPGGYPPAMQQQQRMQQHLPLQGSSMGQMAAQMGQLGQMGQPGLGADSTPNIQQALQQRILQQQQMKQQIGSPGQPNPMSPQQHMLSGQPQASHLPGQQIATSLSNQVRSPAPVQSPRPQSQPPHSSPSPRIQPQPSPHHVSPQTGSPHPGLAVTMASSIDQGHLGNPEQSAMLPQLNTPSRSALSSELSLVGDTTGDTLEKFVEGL
UniProt O43169: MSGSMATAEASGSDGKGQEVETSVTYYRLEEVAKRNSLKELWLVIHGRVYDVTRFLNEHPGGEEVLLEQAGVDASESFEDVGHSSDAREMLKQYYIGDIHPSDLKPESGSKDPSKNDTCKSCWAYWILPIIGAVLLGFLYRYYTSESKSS
UniProt Q9Y5B0: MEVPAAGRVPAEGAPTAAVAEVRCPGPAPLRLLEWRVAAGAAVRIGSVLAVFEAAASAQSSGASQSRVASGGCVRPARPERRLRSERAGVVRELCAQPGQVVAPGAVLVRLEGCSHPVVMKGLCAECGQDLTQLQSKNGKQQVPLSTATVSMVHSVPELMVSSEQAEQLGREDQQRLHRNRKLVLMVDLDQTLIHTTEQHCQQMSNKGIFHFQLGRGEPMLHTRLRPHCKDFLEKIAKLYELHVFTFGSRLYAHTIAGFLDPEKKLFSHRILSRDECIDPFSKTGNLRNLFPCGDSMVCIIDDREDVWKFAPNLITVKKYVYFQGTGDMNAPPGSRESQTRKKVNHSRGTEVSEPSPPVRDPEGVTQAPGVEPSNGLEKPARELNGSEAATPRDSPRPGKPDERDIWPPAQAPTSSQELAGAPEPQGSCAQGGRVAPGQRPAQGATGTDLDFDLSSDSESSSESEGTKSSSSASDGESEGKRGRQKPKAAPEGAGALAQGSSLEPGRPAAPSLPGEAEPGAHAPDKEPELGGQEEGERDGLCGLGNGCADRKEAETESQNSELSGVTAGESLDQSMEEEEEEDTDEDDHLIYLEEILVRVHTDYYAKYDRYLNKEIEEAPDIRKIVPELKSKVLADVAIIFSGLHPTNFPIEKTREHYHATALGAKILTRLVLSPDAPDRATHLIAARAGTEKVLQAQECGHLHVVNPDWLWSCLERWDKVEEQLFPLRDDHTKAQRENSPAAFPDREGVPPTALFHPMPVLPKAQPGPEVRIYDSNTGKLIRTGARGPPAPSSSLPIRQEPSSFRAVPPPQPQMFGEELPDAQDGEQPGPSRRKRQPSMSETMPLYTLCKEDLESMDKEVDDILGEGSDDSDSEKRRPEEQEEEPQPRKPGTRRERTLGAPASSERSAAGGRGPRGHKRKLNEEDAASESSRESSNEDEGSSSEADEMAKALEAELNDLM
UniProt A4D126: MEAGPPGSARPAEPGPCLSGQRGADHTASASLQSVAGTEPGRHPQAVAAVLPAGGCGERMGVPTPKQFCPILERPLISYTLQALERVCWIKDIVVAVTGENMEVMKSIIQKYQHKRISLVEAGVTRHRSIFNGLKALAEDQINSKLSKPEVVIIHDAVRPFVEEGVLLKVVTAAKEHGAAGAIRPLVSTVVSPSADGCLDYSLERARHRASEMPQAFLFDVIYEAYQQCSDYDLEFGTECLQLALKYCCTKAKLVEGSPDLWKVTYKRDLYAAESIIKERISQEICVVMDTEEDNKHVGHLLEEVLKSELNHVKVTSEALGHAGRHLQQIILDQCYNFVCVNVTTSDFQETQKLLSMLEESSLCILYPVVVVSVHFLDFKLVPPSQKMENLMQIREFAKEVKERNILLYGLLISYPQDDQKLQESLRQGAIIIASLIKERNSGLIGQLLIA
UniProt Q2TBE0: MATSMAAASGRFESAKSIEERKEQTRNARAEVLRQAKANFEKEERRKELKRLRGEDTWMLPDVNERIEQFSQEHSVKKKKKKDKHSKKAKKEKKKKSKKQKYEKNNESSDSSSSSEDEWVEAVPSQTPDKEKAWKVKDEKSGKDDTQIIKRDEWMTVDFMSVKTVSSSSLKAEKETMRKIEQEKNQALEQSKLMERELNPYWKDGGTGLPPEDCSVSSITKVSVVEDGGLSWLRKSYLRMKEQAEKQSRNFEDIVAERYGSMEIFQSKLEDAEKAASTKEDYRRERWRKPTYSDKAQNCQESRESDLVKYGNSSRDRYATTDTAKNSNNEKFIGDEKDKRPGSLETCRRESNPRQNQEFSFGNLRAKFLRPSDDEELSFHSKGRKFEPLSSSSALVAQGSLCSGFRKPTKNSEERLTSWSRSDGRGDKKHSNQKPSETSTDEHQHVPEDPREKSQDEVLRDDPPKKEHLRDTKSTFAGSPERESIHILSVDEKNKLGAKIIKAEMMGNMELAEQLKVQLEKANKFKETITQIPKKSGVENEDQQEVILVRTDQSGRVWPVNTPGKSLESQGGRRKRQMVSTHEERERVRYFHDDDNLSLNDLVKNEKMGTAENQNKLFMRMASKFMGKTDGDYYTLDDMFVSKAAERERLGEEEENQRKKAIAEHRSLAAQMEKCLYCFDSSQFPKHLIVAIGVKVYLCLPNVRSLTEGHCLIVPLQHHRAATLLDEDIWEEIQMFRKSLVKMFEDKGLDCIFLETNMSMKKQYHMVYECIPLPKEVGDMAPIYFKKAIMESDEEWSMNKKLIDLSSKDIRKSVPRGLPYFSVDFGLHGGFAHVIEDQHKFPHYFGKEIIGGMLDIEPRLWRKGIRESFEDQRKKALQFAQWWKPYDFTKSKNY
UniProt P04080: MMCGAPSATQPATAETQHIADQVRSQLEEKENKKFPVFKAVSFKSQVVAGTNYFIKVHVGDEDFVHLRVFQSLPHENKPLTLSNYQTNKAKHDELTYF

Key:
Test in all cases: log2 fold change, soluble protein after heating vs DMSO (PISA); higher = thermal stabilisation; K562 lysate, 10 uM; active = over 0.2 and 3.5 SD of the protein, either way, in both replicates (recomputed)
lapatinib = compound: CS(=O)(=O)CCNCc1ccc(-c2ccc3ncnc(Nc4ccc(OCc5cccc(F)c5)c(Cl)c4)c3c2)o1 [lapatinib]
Summary of the method: (§1)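 Log-two fold change in thermal stability relative to solvent controls is reported from duplicates. For each sample, crude K562 extract from dounce-homogenised pellets in PBS pH 7.4 with 1 mM MgCl2, at 1 mg/mL protein, was treated with 10 μM compound for 30 min. Aliquots heated for 3 min across 48°C-58°C were pooled, brought to 0.5% NP-40 at 4°C and cleared at 21,000xg for 90 min. The supernatant was quantified by TMTpro 16plex LC-MS/MS with channel sums equalised.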

pictilisib = compound: CS(=O)(=O)N1CCN(Cc2cc3nc(-c4cccc5[nH]ncc45)nc(N4CCOCC4)c3s2)CC1 [pictilisib]
Summary of the method: as §1

crizotinib = compound: C[C@@H](Oc1cc(-c2cnn(C3CCNCC3)c2)cnc1N)c1c(Cl)ccc(F)c1Cl [crizotinib]
Summary of the method: as §1

[1] = compound: C[C@H](C1=CC=C(C=C1)C(=O)NC2=C3C=CNC3=NC=C2)N
Summary of the method: as §1

duvelisib = compound: C[C@H](Nc1ncnc2nc[nH]c12)c1cc2cccc(Cl)c2c(=O)n1-c1ccccc1 [duvelisib]
Summary of the method: as §1

gandotinib = compound: Cc1cc(Nc2cc(CN3CCOCC3)c3nc(C)c(Cc4ccc(Cl)cc4F)n3n2)n[nH]1 [gandotinib]
Summary of the method: as §1

tozasertib = compound: Cc1cc(Nc2cc(N3CCN(C)CC3)nc(Sc3ccc(NC(=O)C4CC4)cc3)n2)n[nH]1 [tozasertib]
Summary of the method: as §1

doramapimod = compound: Cc1ccc(-n2nc(C(C)(C)C)cc2NC(=O)Nc2ccc(OCCN3CCOCC3)c3ccccc23)cc1 [doramapimod]
Summary of the method: as §1

bafetinib = compound: Cc1ccc(NC(=O)c2ccc(CN3CC[C@H](N(C)C)C3)c(C(F)(F)F)c2)cc1Nc1nccc(-c2cncnc2)n1 [bafetinib]
Summary of the method: as §1

[2] = compound: Cc1cccc(CC(=O)N2CCc3c2ccc(-c2cn(C)c4ncnc(N)c24)c3F)n1
Summary of the method: as §1

nilotinib = compound: Cc1cn(-c2cc(NC(=O)c3ccc(C)c(Nc4nccc(-c5cccnc5)n4)c3)cc(C(F)(F)F)c2)cn1 [nilotinib]
Summary of the method: as §1

[3] = compound: Cc1nc(Nc2n[nH]c3c2CN(C(=O)N[C@H](CN(C)C)c2ccccc2)C3(C)C)c2sccc2n1
Summary of the method: as §1

dasatinib = compound: Cc1nc(Nc2ncc(C(=O)Nc3c(C)cccc3Cl)s2)cc(N2CCN(CCO)CC2)n1 [dasatinib]
Summary of the method: as §1

[4] = compound: Cc1ncc(-c2ccnc(Nc3ccc(S(C)(=O)=O)cc3)n2)n1C(C)C
Summary of the method: as §1

[5] = compound: Cn1cc(-c2ccc3c(c2)CCN3C(=O)Cc2cccc(C(F)(F)F)c2)c2c(N)ncnc21
Summary of the method: as §1

quisinostat = compound: Cn1cc(CNCC2CCN(c3ncc(C(=O)NO)cn3)CC2)c2ccccc21 [quisinostat]
Summary of the method: as §1

tipifarnib = compound: Cn1cncc1[C@@](N)(c1ccc(Cl)cc1)c1ccc2c(c1)c(-c1cccc(Cl)c1)cc(=O)n2C [tipifarnib]
Summary of the method: as §1

[6] = compound: NC(=O)Nc1cc(-c2cccc(F)c2)sc1C(=O)N[C@H]1CCCNC1
Summary of the method: as §1

[7] = compound: NC(=O)c1cnc(N[C@@H]2CCCC[C@@H]2N)nc1Nc1cccc(-n2nccn2)c1
Summary of the method: as §1

[8] = compound: NC1(c2ccc(-c3nc4ccn5c(=O)[nH]nc5c4cc3-c3ccccc3)cc2)CCC1
Summary of the method: as §1

Measured: log2 fold change

CTSL (UniProt P07711)
inactive: lapatinib -0.023 | pictilisib -0.01 | crizotinib 0.005 | [1] -0.075 | duvelisib 0.003 | gandotinib 0.079 | tozasertib -0.054 | doramapimod 0.005 | bafetinib -0.005 | [2] 0.009 | nilotinib 0 | [3] 0.005 | dasatinib -0.003 | [4] 0.007 | [5] 0.018 | quisinostat -0.042 | tipifarnib 0.03 | [6] 0.006 | [7] 0.034 | [8] -0.001

CREG1 (UniProt O75629)
inactive: lapatinib -0.029 | pictilisib -0.018 | crizotinib 0.027 | [1] 0.034 | duvelisib -0.039 | gandotinib 0.029 | tozasertib -0.022 | doramapimod -0.026 | bafetinib 0.002 | [2] -0.092 | nilotinib 0.114 | [3] -0.036 | dasatinib -0.015 | [4] 0.001 | [5] -0.016 | quisinostat 0.021 | tipifarnib 0.008 | [6] 0 | [7] -0.016 | [8] 0.015

CSTF2 (UniProt P33240)
inactive: lapatinib -0.006 | pictilisib -0.049 | crizotinib 0.003 | [1] -0.025 | duvelisib 0.044 | gandotinib 0.051 | tozasertib 0.033 | doramapimod 0.036 | bafetinib 0.03 | [2] -0.001 | nilotinib 0.031 | [3] 0.038 | dasatinib 0.03 | [4] -0.017 | [5] -0.029 | quisinostat 0.033 | tipifarnib -0.021 | [6] -0.013 | [7] -0.007 | [8] 0.052

CYB5R1 (UniProt Q9UHQ9)
inactive: lapatinib 0.009 | pictilisib -0.071 | crizotinib -0.008 | [1] 0.036 | duvelisib 0.031 | gandotinib -0.073 | tozasertib -0.046 | doramapimod -0.022 | bafetinib 0.117 | [2] 0.036 | nilotinib 0.059 | [3] -0.033 | dasatinib -0.025 | [4] 0.004 | [5] 0.031 | quisinostat 0.036 | tipifarnib -0.072 | [6] 0.094 | [7] 0.013 | [8] -0.029

CYCS (UniProt P99999)
inactive: lapatinib 0.015 | pictilisib -0.033 | crizotinib 0.036 | [1] -0.054 | duvelisib -0.039 | gandotinib 0.056 | tozasertib -0.004 | doramapimod -0.029 | bafetinib 0.06 | [2] -0.006 | nilotinib 0.014 | [3] -0.038 | dasatinib 0.001 | [4] 0.008 | [5] -0.037 | quisinostat 0.035 | tipifarnib 0.015 | [6] -0.003 | [7] -0.015 | [8] 0.022

CYB5R4 (UniProt Q7L1T6)
inactive: lapatinib 0.015 | pictilisib 0.014 | crizotinib -0.108 | [1] -0.024 | duvelisib -0.018 | gandotinib 0.014 | tozasertib -0.014 | doramapimod 0.059 | bafetinib -0.089 | [2] 0.077 | nilotinib -0.072 | [3] 0.059 | dasatinib -0.025 | [4] 0.057 | [5] 0.058 | quisinostat -0.099 | tipifarnib -0.003 | [6] 0.076 | [7] -0.038 | [8] -0.013

CST3 (UniProt P01034)
inactive: lapatinib 0.05 | pictilisib 0.019 | crizotinib -0.03 | [1] 0.029 | duvelisib -0.072 | gandotinib -0.005 | tozasertib 0.151 | doramapimod 0.044 | bafetinib 0.016 | [2] 0.137 | nilotinib -0.021 | [3] -0.023 | dasatinib 0.031 | [4] -0.048 | [5] 0.096 | quisinostat 0.033 | tipifarnib -0.004 | [6] -0.062 | [7] -0.028 | [8] 0.039

CYB561A3 isoform 2 (UniProt Q8NBI2)
inactive: lapatinib 0.032 | pictilisib -0.11 | crizotinib -0.097 | [1] -0.36 | duvelisib 0.083 | gandotinib 0.22 | tozasertib -0.03 | doramapimod 0.026 | bafetinib -0.03 | [2] 0.243 | nilotinib -0.001 | [3] -0.02 | dasatinib 0.053 | [4] 0.049 | [5] -0.012 | quisinostat -0.115 | tipifarnib -0.013 | [6] -0.017 | [7] -0.052 | [8] -0.016

CREBBP (UniProt Q92793)
inactive: lapatinib 0.014 | pictilisib 0.003 | crizotinib -0.005 | [1] 0.026 | duvelisib -0.02 | gandotinib -0.022 | tozasertib 0.029 | doramapimod 0.007 | bafetinib -0.01 | [2] -0.042 | nilotinib 0.001 | [3] -0.029 | dasatinib -0.051 | [4] 0.049 | [5] 0.023 | quisinostat -0.012 | tipifarnib 0.028 | [6] 0.006 | [7] 0 | [8] -0.007

CYB5B (UniProt O43169)
inactive: lapatinib -0.02 | pictilisib -0.034 | crizotinib 0.046 | [1] 0.054 | duvelisib -0.038 | gandotinib 0.009 | tozasertib -0.024 | doramapimod -0.077 | bafetinib 0.01 | [2] 0.066 | nilotinib 0.045 | [3] -0.055 | dasatinib 0.037 | [4] 0.031 | [5] -0.134 | quisinostat 0.016 | tipifarnib 0.056 | [6] -0.011 | [7] -0.014 | [8] -0.002

CWC27 (UniProt Q6UX04)
inactive: lapatinib 0.004 | pictilisib -0.003 | crizotinib -0.022 | [1] 0.023 | duvelisib -0.054 | gandotinib -0.032 | tozasertib -0.016 | doramapimod 0.013 | bafetinib -0.021 | [2] -0.008 | nilotinib -0.024 | [3] -0.001 | dasatinib -0.041 | [4] -0.03 | [5] -0.012 | quisinostat -0.023 | tipifarnib 0.02 | [6] 0.02 | [7] 0.006 | [8] 0.005

CTDP1 (UniProt Q9Y5B0)
inactive: lapatinib -0.003 | pictilisib -0.016 | crizotinib -0.054 | [1] 0.036 | duvelisib -0.037 | gandotinib -0.029 | tozasertib 0.01 | doramapimod 0.059 | bafetinib -0.03 | [2] -0.003 | nilotinib 0.007 | [3] 0.002 | dasatinib -0.028 | [4] -0.016 | [5] -0.004 | quisinostat -0.109 | tipifarnib 0.018 | [6] 0.006 | [7] 0.023 | [8] -0.014

Fetched one by one from the entries so far (2):
CREBBP (UniProt Q92793)
inactive: lapatinib 0.014 | pictilisib 0.003 | crizotinib -0.005 | [1] 0.026 | duvelisib -0.02 | gandotinib -0.022 | tozasertib 0.029 | doramapimod 0.007 | bafetinib -0.01 | [2] -0.042 | nilotinib 0.001 | [3] -0.029 | dasatinib -0.051 | [4] 0.049 | [5] 0.023 | quisinostat -0.012 | tipifarnib 0.028 | [6] 0.006 | [7] 0 | [8] -0.007

CYB561A3 isoform 2 (UniProt Q8NBI2)
inactive: lapatinib 0.032 | pictilisib -0.11 | crizotinib -0.097 | [1] -0.36 | duvelisib 0.083 | gandotinib 0.22 | tozasertib -0.03 | doramapimod 0.026 | bafetinib -0.03 | [2] 0.243 | nilotinib -0.001 | [3] -0.02 | dasatinib 0.053 | [4] 0.049 | [5] -0.012 | quisinostat -0.115 | tipifarnib -0.013 | [6] -0.017 | [7] -0.052 | [8] -0.016

Going on with the list.

CRPPA (UniProt A4D126)
inactive: lapatinib -0.011 | pictilisib -0.065 | crizotinib -0.018 | [1] -0.02 | duvelisib 0.016 | gandotinib 0.015 | tozasertib -0.022 | doramapimod 0.016 | bafetinib 0.008 | [2] 0.005 | nilotinib -0.037 | [3] -0.018 | dasatinib 0.02 | [4] 0.017 | [5] -0.019 | quisinostat -0.062 | tipifarnib 0.008 | [6] 0.013 | [7] 0.022 | [8] 0.028

CTSZ (UniProt Q9UBR2)
inactive: lapatinib -0.017 | pictilisib 0.01 | crizotinib 0.02 | [1] -0.058 | duvelisib 0.097 | gandotinib 0.027 | tozasertib 0.018 | doramapimod 0.048 | bafetinib 0.023 | [2] 0.039 | nilotinib -0.047 | [3] 0.003 | dasatinib 0.03 | [4] -0.037 | [5] 0.036 | quisinostat -0.025 | tipifarnib -0.046 | [6] 0.009 | [7] 0 | [8] -0.012

CWF19L2 (UniProt Q2TBE0)
inactive: lapatinib 0.249 | pictilisib -0.033 | crizotinib 0.006 | [1] -0.023 | duvelisib -0.005 | gandotinib 0.122 | tozasertib 0.005 | doramapimod 0.002 | bafetinib -0.091 | [2] 0.046 | nilotinib -0.031 | [3] 0.062 | dasatinib 0.002 | [4] -0.039 | [5] 0.018 | quisinostat 0.026 | tipifarnib -0.022 | [6] -0.021 | [7] 0.024 | [8] 0

CSTB (UniProt P04080)
inactive: lapatinib 0.05 | pictilisib 0.003 | crizotinib -0.059 | [1] -0.235 | duvelisib 0.025 | gandotinib 0.147 | tozasertib -0.01 | doramapimod 0.107 | bafetinib 0.012 | [2] 0.104 | nilotinib 0.057 | [3] 0.009 | dasatinib -0.017 | [4] 0.079 | [5] -0.022 | quisinostat -0.206 | tipifarnib -0.008 | [6] -0.004 | [7] -0.055 | [8] -0.005
